Assay results as given in the supplement of paper PMC10849652.
This is one part of the list.

Sequences of proteins named here, by UniProt entry; tags and fusion partners are left off. A change or cut given only in a name is not applied to a line headed by its entry.
UniProt Q9H4A4: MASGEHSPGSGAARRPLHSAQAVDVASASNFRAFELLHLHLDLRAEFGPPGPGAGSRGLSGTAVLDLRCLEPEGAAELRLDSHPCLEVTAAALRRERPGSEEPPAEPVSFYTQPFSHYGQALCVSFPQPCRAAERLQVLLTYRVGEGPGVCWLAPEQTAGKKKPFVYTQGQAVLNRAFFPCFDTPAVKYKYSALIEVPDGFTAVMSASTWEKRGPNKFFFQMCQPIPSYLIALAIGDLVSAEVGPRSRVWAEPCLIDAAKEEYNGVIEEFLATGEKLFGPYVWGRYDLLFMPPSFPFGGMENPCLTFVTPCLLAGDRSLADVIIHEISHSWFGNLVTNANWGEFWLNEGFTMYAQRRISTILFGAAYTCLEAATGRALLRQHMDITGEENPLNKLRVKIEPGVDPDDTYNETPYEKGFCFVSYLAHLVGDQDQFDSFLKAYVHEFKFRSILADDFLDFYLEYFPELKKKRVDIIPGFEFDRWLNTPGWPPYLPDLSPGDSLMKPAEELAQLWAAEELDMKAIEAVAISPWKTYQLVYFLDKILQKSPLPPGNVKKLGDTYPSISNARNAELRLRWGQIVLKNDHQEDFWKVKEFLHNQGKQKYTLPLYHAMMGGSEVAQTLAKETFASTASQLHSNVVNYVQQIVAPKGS
UniProt Q8N122, whole entry, looked up: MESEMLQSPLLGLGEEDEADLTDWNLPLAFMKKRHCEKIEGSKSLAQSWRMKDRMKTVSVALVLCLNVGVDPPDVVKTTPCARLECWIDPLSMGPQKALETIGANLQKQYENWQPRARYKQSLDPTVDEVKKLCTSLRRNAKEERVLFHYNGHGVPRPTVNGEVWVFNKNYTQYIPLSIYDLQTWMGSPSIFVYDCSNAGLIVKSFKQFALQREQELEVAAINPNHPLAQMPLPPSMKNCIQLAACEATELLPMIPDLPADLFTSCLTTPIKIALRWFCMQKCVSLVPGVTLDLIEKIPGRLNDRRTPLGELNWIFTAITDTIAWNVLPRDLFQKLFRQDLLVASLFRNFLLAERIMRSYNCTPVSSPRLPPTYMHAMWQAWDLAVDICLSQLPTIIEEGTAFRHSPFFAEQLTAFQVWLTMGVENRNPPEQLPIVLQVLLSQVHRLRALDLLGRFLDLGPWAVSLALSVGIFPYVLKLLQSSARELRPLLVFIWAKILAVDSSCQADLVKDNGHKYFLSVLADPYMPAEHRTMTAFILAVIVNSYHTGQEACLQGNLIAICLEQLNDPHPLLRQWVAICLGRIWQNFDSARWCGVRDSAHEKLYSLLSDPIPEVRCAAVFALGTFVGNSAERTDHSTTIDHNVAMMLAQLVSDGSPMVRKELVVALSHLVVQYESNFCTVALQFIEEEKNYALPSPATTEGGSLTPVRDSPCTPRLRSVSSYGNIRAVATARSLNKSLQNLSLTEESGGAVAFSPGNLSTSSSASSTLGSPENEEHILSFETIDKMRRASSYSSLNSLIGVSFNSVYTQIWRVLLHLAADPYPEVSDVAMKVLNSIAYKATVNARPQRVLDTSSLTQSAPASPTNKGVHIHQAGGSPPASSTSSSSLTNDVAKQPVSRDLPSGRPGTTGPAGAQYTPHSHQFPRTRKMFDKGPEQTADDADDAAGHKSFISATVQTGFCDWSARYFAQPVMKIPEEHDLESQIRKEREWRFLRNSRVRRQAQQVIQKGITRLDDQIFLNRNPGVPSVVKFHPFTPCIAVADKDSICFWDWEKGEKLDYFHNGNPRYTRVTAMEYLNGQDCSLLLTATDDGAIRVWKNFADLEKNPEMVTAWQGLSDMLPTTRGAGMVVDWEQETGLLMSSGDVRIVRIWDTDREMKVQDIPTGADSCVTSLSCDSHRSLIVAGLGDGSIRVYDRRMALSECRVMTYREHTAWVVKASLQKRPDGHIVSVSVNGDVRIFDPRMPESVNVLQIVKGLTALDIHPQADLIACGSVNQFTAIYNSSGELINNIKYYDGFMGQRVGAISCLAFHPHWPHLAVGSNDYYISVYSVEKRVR
UniProt Q99942: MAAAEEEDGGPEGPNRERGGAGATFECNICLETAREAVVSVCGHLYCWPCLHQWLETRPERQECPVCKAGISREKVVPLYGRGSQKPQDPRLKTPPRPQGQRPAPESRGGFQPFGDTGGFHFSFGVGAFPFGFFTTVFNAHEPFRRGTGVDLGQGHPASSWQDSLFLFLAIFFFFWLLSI
UniProt Q9P2E9: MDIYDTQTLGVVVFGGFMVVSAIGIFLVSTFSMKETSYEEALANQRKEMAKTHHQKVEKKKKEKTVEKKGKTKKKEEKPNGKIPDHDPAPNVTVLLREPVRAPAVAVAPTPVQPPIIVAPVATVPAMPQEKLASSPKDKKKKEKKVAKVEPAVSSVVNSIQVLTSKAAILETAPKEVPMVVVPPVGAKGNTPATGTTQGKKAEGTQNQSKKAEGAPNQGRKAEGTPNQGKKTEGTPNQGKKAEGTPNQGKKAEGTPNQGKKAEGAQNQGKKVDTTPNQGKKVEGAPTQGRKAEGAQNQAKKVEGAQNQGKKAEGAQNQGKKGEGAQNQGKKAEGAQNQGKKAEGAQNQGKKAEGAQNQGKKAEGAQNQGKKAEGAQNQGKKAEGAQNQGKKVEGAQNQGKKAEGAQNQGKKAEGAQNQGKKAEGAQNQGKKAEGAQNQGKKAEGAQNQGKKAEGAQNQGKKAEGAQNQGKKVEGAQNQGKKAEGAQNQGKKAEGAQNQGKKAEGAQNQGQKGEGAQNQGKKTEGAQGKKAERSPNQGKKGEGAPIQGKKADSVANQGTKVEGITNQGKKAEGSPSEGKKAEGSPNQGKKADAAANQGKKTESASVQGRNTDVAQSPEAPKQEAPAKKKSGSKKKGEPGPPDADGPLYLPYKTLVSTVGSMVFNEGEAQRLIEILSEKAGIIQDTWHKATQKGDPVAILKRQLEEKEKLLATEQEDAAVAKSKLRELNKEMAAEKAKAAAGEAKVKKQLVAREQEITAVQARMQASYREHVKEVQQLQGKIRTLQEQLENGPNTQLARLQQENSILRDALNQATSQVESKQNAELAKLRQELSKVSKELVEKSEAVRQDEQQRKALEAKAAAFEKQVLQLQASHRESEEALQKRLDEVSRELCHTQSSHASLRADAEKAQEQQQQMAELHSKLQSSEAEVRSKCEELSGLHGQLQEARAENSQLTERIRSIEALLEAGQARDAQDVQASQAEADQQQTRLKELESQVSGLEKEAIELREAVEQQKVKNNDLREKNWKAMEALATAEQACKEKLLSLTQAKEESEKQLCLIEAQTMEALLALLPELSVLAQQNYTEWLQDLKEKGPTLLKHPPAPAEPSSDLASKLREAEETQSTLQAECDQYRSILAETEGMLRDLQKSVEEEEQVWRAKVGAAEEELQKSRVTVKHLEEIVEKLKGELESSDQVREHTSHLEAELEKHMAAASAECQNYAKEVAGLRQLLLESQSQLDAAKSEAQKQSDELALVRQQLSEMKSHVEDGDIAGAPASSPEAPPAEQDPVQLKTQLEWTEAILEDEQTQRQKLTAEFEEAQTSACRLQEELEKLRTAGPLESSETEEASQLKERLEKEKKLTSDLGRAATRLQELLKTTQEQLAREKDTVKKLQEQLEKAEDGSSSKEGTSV
UniProt P05387, whole entry, looked up: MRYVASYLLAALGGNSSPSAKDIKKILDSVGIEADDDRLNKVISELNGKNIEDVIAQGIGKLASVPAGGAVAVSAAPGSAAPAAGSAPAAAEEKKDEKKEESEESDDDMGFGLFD

How the values were obtained:
Assay in all cases: log2 fold change, soluble protein after heating vs DMSO (PISA); higher = thermal stabilisation; K562 cells, 10 uM, 30 min; active = over 0.2 and 3.5 SD of the protein, either way, in both replicates (recomputed)
[1] = compound: NC(=O)Nc1cc(-c2cccc(F)c2)sc1C(=O)N[C@H]1CCCNC1
Outline: (§1)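 Aliquots of K562 cells (2×10^6 cells/mL) treated with 10 μM compound for 30 min were heated for 3 min over 48°C-58°C. After pooling and extraction in PBS with 0.5% NP-40 at 4°C, soluble protein from a 21,000xg, 90 min spin was quantified by TMTpro 16plex LC-MS/MS with channel sums equalised. Thermal stability is expressed against control samples, from duplicates, as a log2 fold change.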

[2] = compound: NC(=O)c1cnc(N[C@@H]2CCCC[C@@H]2N)nc1Nc1cccc(-n2nccn2)c1
Outline: as §1

[3] = compound: NC1(c2ccc(-c3nc4ccn5c(=O)[nH]nc5c4cc3-c3ccccc3)cc2)CCC1
Outline: as §1

[4] = compound: NCC(=O)Nc1ccc(-n2nc(C(F)(F)F)cc2-c2ccc3c(ccc4ccccc43)c2)cc1
Outline: as §1

entinostat = compound: Nc1ccccc1NC(=O)c1ccc(CNC(=O)OCc2cccnc2)cc1 [entinostat]
Outline: as §1

vorinostat = compound: O=C(CCCCCCC(=O)Nc1ccccc1)NO [vorinostat]
Outline: as §1

citarinostat = compound: O=C(CCCCCCNC(=O)c1cnc(N(c2ccccc2)c2ccccc2Cl)nc1)NO [citarinostat]
Outline: as §1

silmitasertib = compound: O=C(O)c1ccc2c(c1)nc(Nc1cccc(Cl)c1)c1ccncc12 [silmitasertib]
Outline: as §1

[5] = compound: O=C1NC(=O)C(c2cnc3ccccn23)=C1c1cn2c3c(cc(F)cc13)CN(C(=O)N1CCCCC1)CC2
Outline: as §1

[6] = compound: c1cc(OCCN2CCCCC2)cc(-c2n[nH]c3ccc(-c4nnc[nH]4)cc23)c1
Outline: as §1

RPL28 (UniProt P46779)
log2 fold change [1]: inactive: 0.238
log2 fold change [2]: inactive: 0.205
log2 fold change [3]: inactive: 0.422
log2 fold change [4]: inactive: 0.275
log2 fold change (entinostat): inactive: -0.097
log2 fold change (vorinostat): inactive: -0.006
log2 fold change (citarinostat): inactive: -0.208
log2 fold change (silmitasertib): inactive: 0.151
log2 fold change [5]: inactive: 0.241
log2 fold change [6]: inactive: -0.288

RNPEP (UniProt Q9H4A4)
log2 fold change [1]: inactive: -0.001
log2 fold change [2]: inactive: -0.093
log2 fold change [3]: inactive: -0.086
log2 fold change [4]: inactive: -0.027
log2 fold change (entinostat): inactive: 0.042
log2 fold change (vorinostat): inactive: 0.033
log2 fold change (citarinostat): inactive: 0.018
log2 fold change (silmitasertib): inactive: 0.031
log2 fold change [5]: inactive: -0.017
log2 fold change [6]: inactive: -0.033

RPL7 (UniProt P18124)
log2 fold change [1]: inactive: 0.29
log2 fold change [2]: inactive: 0.213
log2 fold change [3]: inactive: 0.472
log2 fold change [4]: inactive: 0.358
log2 fold change (entinostat): inactive: -0.114
log2 fold change (vorinostat): inactive: -0.047
log2 fold change (citarinostat): inactive: -0.248
log2 fold change (silmitasertib): inactive: 0.21
log2 fold change [5]: inactive: 0.277
log2 fold change [6]: inactive: -0.389

RPTOR (UniProt Q8N122)
log2 fold change [1]: inactive: -0.026
log2 fold change [2]: inactive: -0.139
log2 fold change [3]: active: -0.243
log2 fold change [4]: inactive: -0.021
log2 fold change (entinostat): inactive: 0.009
log2 fold change (vorinostat): inactive: 0.007
log2 fold change (citarinostat): inactive: 0.056
log2 fold change (silmitasertib): inactive: 0.085
log2 fold change [5]: inactive: -0.025
log2 fold change [6]: inactive: -0.008

RPL9 (UniProt P32969)
log2 fold change [1]: inactive: 0.236
log2 fold change [2]: inactive: 0.22
log2 fold change [3]: inactive: 0.398
log2 fold change [4]: inactive: 0.249
log2 fold change (entinostat): inactive: -0.076
log2 fold change (vorinostat): inactive: -0.014
log2 fold change (citarinostat): inactive: -0.216
log2 fold change (silmitasertib): inactive: 0.203
log2 fold change [5]: inactive: 0.33
log2 fold change [6]: inactive: -0.383

RNF5 (UniProt Q99942)
log2 fold change [1]: inactive: 0.075
log2 fold change [2]: inactive: -0.028
log2 fold change [3]: inactive: -0.144
log2 fold change [4]: inactive: -0.06
log2 fold change (entinostat): inactive: 0.086
log2 fold change (vorinostat): inactive: -0.101
log2 fold change (citarinostat): inactive: -0.026
log2 fold change (silmitasertib): inactive: -0.043
log2 fold change [5]: inactive: -0.008
log2 fold change [6]: inactive: -0.052

RPL4 (UniProt P36578)
log2 fold change [1]: inactive: 0.266
log2 fold change [2]: inactive: 0.204
log2 fold change [3]: inactive: 0.474
log2 fold change [4]: inactive: 0.341
log2 fold change (entinostat): inactive: -0.125
log2 fold change (vorinostat): inactive: -0.028
log2 fold change (citarinostat): inactive: -0.209
log2 fold change (silmitasertib): inactive: 0.214
log2 fold change [5]: inactive: 0.323
log2 fold change [6]: inactive: -0.275

RPL21 (UniProt P46778)
log2 fold change [1]: inactive: 0.252
log2 fold change [2]: inactive: 0.134
log2 fold change [3]: inactive: 0.478
log2 fold change [4]: inactive: 0.328
log2 fold change (entinostat): inactive: -0.088
log2 fold change (vorinostat): inactive: -0.01
log2 fold change (citarinostat): inactive: -0.14
log2 fold change (silmitasertib): inactive: 0.195
log2 fold change [5]: inactive: 0.157
log2 fold change [6]: inactive: -0.268

RPL18A (UniProt Q02543)
log2 fold change [1]: inactive: 0.22
log2 fold change [2]: inactive: 0.291
log2 fold change [3]: inactive: 0.441
log2 fold change [4]: inactive: 0.36
log2 fold change (entinostat): inactive: -0.094
log2 fold change (vorinostat): inactive: -0.028
log2 fold change (citarinostat): inactive: -0.192
log2 fold change (silmitasertib): inactive: 0.218
log2 fold change [5]: inactive: 0.28
log2 fold change [6]: inactive: -0.312

RRBP1 (UniProt Q9P2E9)
log2 fold change [1]: inactive: 0.128
log2 fold change [2]: inactive: 0.132
log2 fold change [3]: inactive: 0.372
log2 fold change [4]: inactive: 0.159
log2 fold change (entinostat): inactive: -0.092
log2 fold change (vorinostat): inactive: -0.089
log2 fold change (citarinostat): inactive: -0.164
log2 fold change (silmitasertib): inactive: 0.227
log2 fold change [5]: inactive: 0.297
log2 fold change [6]: inactive: -0.195

RPL23A (UniProt P62750)
log2 fold change [1]: inactive: 0.151
log2 fold change [2]: inactive: 0.146
log2 fold change [3]: inactive: 0.344
log2 fold change [4]: inactive: 0.182
log2 fold change (entinostat): inactive: -0.072
log2 fold change (vorinostat): inactive: -0.008
log2 fold change (citarinostat): inactive: -0.112
log2 fold change (silmitasertib): inactive: 0.078
log2 fold change [5]: inactive: 0.153
log2 fold change [6]: inactive: -0.151

RPL39P5 (UniProt Q59GN2)
log2 fold change [1]: inactive: -0.078
log2 fold change [2]: inactive: 0.193
log2 fold change [3]: inactive: 0.288
log2 fold change [4]: inactive: 0.136
log2 fold change (entinostat): inactive: -0.151
log2 fold change (vorinostat): inactive: -0.009
log2 fold change (citarinostat): inactive: -0.102
log2 fold change (silmitasertib): inactive: 0.12
log2 fold change [5]: inactive: 0.087
log2 fold change [6]: inactive: -0.215

RPS3A (UniProt P61247)
log2 fold change [1]: inactive: 0.01
log2 fold change [2]: inactive: 0.084
log2 fold change [3]: inactive: 0.164
log2 fold change [4]: inactive: 0.035
log2 fold change (entinostat): inactive: -0.04
log2 fold change (vorinostat): inactive: 0.041
log2 fold change (citarinostat): inactive: -0.071
log2 fold change (silmitasertib): inactive: 0.017
log2 fold change [5]: inactive: 0.088
log2 fold change [6]: inactive: -0.131

RPLP2 (UniProt P05387)
log2 fold change [1]: inactive: 0.079
log2 fold change [2]: inactive: 0.093
log2 fold change [3]: inactive: 0.436
log2 fold change [4]: inactive: 0.355
log2 fold change (entinostat): inactive: -0.132
log2 fold change (vorinostat): inactive: -0.029
log2 fold change (citarinostat): inactive: -0.202
log2 fold change (silmitasertib): inactive: 0.188
log2 fold change [5]: inactive: 0.227
log2 fold change [6]: inactive: -0.386
